This passage reports Activity results from ChEMBL document CHEMBL1743201, “Casarett and Doull's Toxicology The Basic Science of Poisons, 7th edition” (2008).

Amino acid sequences for entries named in this document (tags omitted). A change or cut given only in a name is not applied to a line headed by its entry.
UniProt O75897: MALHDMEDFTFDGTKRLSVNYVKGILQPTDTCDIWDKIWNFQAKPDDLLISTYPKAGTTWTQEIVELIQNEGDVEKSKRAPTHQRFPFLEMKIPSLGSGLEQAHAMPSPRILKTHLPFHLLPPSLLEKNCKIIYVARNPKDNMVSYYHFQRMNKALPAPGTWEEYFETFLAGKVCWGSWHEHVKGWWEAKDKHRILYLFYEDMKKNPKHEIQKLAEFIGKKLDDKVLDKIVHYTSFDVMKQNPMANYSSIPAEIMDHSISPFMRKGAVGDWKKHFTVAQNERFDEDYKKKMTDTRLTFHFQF

The data set concerns the target Sulfotransferase 1C4 (Homo sapiens, UniProt O75897). Briefly: Major substrate of human cytosolic sulfotransferase SULT1C4. Type of data set: ADME.

For the molecule `CCCCCCCCc1ccc(O)cc1` [4-OCTYLPHENOL], the Activity entry is “Substrate”.
